# Library screening results

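Whole-cell assay for inhibitors of Mycobacterium tuberculosis growth, labelled Cornell in the record; the read-out is not stated. The concentration is filed as 10 mM, unlikely as a test dose, so the dose is not known. Higher means stronger inhibition (inferred from two other growth screens of the library). Size under these conditions: about 53,000 compounds, about 900 of them at 50% or above in at least one test.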

Results are given as percent effect.
How 0% and 100% were set is not recorded. Most values in the screen are low, and negative values occur.
Compounds were drawn at random from those tested, without regard to their results.

compound,percent effect
O=C(O)C(F)(F)F.[H][C@@]12CCN(CCc3ccccc3)C[C@@]1([H])O[C@@H](C(=O)NCCOC)C2,-36.83
Cc1cc(C2CCCN(S(=O)(=O)N(C)C)C2)ccn1 (centres undefined),-16.74
CC(=O)N1CCc2[nH]c(=O)ccc2C1,39.57
O=C(C1CCOCC1)N1CCN(CC2CC2)c2ncccc2C1,-25.54
CCCNC(=O)CNc1cc(C#N)ccc1OCC,-12.97
COCCN(CCOC)Cc1nc2c(cnn2C)c(=O)[nH]1,-34.75
CN(Cc1cc2n(n1)CCNC2)Cc1n[nH]c2c1CCCCC2,-21.96
CCOc1nnc(CNC2CCCN(c3ccc(C)nn3)C2)s1 (centres undefined),23.51
O=C(O)C(F)(F)F.[H][C@@]12C[C@H](C(=O)N3CCCCO3)CN(CC3CCOCC3)[C@]1([H])CCO2,-55.09
Cc1cc(C)c2c(N3CCN(CCN4CCOCC4)CC3)ncnc2n1,-4.483
COC(=O)c1ccc(CN[C@@H]2COC[C@H]2Cc2cc(C)no2)cc1.O=C(O)CC(O)(CC(=O)O)C(=O)O,-15.18
c1cc(-c2cnc(NC3CC3)nc2[C@H]2CCCO2)ccn1,-6.304
CC(=O)c1cccc(OCCCC(=O)N(C)CC(N)=O)c1,4.11
CN(Cc1ccsc1)C(=O)Nc1cccc(N2CCOC2=O)c1,-11.59
CCCc1n[nH]c(=O)n1[C@@H](CC)c1ccccc1,12.25
CSc1cc2c(cc1NC(=O)NCc1ccncc1)OCCO2,-12.75
CCCC(C(=O)NC1CCN(S(C)(=O)=O)CC1)n1cccc1 (centres undefined),-5.183
Cc1cnc(C)c(N2CCN(CC3CCCO3)CC2)n1 (centres undefined),14.41
Cc1cc(F)ccc1N1CCCC(Nc2nccn3cnnc23)C1=O (centres undefined),-2.577
Cc1nc(NC2CCS(=O)(=O)CC2)cc(C2CCCNC2)n1 (centres undefined),6.125
CC(O)CCN(C)S(=O)(=O)Cc1ccc(Cl)c(Cl)c1 (centres undefined),18.54
Cc1ccc(N2CCc3ncnc(C4CC4)c3CC2)nn1,-26.51
Cc1cnn(CC(C)NCc2nc(-c3cccnc3)no2)c1 (centres undefined),17.57
COc1ccccc1OC1CCN(c2nccc(N)n2)CC1,-15.16
O=C(NCCn1ccnc1)C1COCC(=O)N1Cc1ccccc1 (centres undefined),-11.85
Cc1occc1CNc1ncccc1S(N)(=O)=O,-4.837
CN(C)CC(=O)NC1CC(=O)N(CCc2ccccc2)C1 (centres undefined),25.04
COC(=O)N1CCc2ccc(NC(=O)c3cn(C)nn3)cc2C1,20.61
COCC1c2nnn(C)c2CCN1C(=O)Cc1ccc2c(c1)OCO2 (centres undefined),-16.75
Cc1ncncc1-c1ccnc(N)n1,1.831
COCc1c(C(=O)N2CCCC(C(=O)c3ccccc3)C2)noc1C (centres undefined),26.63
O=C(NCc1ccccc1CN1CCCC1=O)Nc1nncs1,-13.3
O=S(=O)(Cc1ccc(F)cc1)NCc1nnc2n1CCC2,1.17
CC(C)Nc1ncnc2c1CCN(C(=O)c1ccncc1F)CC2.O=C(O)C(F)(F)F,-9.598
O=C(O)C(F)(F)F.O=C(O)C(F)(F)F.[H][C@@]12C[C@H](C)O[C@@]1([H])CCN(Cc1ccccn1)C2,5.002
CN(CC1Cc2ccccc2CN1C)C(=O)CSc1ccccn1 (centres undefined),11.31
CNC(=O)CCc1cc(C)nc(C2CCCCN2)n1 (centres undefined),-11.39
CC(C)n1nc(CN2CCCC2=O)c2c1CN(C(=O)c1ccc[nH]1)C2,-7.081
CC(=O)N1CCC(n2nccc2-c2cnc(N)nc2)CC1,9.157
Cc1ccc(F)c(OC2CCCN(c3cnn(C)c3)C2=O)c1 (centres undefined),16.03
CC(C)(CNC(=O)Nc1nccs1)N1CCOCC1,17.89
CCCN1CCN(Cc2nccn2CC)C(C)C1 (centres undefined),6.53
O=C(O)C(F)(F)F.O=C1CC[C@]2(CC[C@@H](NCc3ccsc3)CC2)N1Cc1ccccc1,29.06
COc1nc(C)c(C(=O)N2CCc3[nH]nc(C4CCCC4)c3C2)s1,20.99
NCc1n[nH]c(=O)n1-c1ccccc1Oc1ccccc1,15.92
Cc1nc(CN2CCCC(N(C)Cc3nc(CC(C)C)no3)C2)no1 (centres undefined),-46.51
CC(C)(C)Cc1nnc(NCc2ccsc2)o1,11.77
CC(C)c1nn(C)c(N2CCOCC2)c1CNCC(=O)N(C)C,8.642
COc1cccc(CN2CCOC(Cn3nc(C)cc3C)C2)c1 (centres undefined),24.37
O=C(Nc1cc(C(F)(F)F)c[nH]c1=O)C1CCNCC1,31.38
CC(NC(=O)c1ccoc1)C(=O)N(C)Cc1cccc(C(F)(F)F)c1 (centres undefined),-38.62
Cl.O=C(Nc1cccc(F)c1)C1=NOC2(CCNCC2)C1,12.88
COc1cccc(-n2cc(CN(C)C(=O)c3cc[nH]n3)cn2)c1,34.36
CCOCc1cnc2n1CCN(Cc1scnc1C)C2C.O=C(O)C(F)(F)F (centres undefined),17.42
COc1ccc(N2CCN(C(=O)COc3nccc(C)n3)CC2)cc1,43.69
Cc1ccc(-c2ccnc(NC(C)c3n[nH]c(=O)[nH]3)n2)c(C)n1 (centres undefined),-20.62
CC(C)(C)Cc1noc2ncc(C(=O)N3CCC3)cc12,-5.953
Cc1ccc(C(=O)N(C)Cc2cc(C)on2)cn1,-17.59
[H][C@]12CC[C@]([H])(CN(C3CCOCC3)C1)N(C(=O)c1csc(NC)n1)C2,-24.71
Cc1c(CN2CCCC(C(=O)CCc3ccccc3)C2)cc(C#N)n1C (centres undefined),11.59
CS(=O)(=O)CCN1CC(c2ccccc2)(c2ccccc2)CCC1=O,-84
CCN(CC)C(=O)[C@@H]1C[C@H](N)CN1C(=O)c1cc2c([nH]c1=O)CCC2,17.53
c1cc(CN2CCC(CCn3cccn3)CC2)cc(Cn2cccn2)c1,9.644
[H][C@@]12C[C@H](C(=O)Nc3cnccn3)CN(S(C)(=O)=O)[C@]1([H])CCO2,23.48
OC(CNCCn1cccn1)COc1ccc2ccccc2c1 (centres undefined),9.519
COc1ccc(CC(=O)N2CCC3(CC2)CCN(CC(C)C)C3=O)cc1,2.082
CCCN1CCN(Cc2cn(CCC(N)=O)c3ccccc23)CC1,3.857
CCc1cccc(-n2nnc(C(=O)O)c2-c2ccncc2)c1,6.508
Cc1nn(C)c(C)c1-c1ccnc(N(C)Cc2nc(C(C)C)no2)n1,-14.16
CC(C)c1nc(-c2ccc(=O)[nH]n2)n(-c2ccc3c(c2)OCO3)n1,8.899
O=C(O)C(F)(F)F.O=C(O)C(F)(F)F.[H][C@@]12CN(Cc3ccsc3)C[C@]1([H])OCCN2CC1CCCO1 (some centres undefined),-21.97
COCCC(C)NC(=O)c1cc(Br)c2c(c1)OCCO2 (centres undefined),13.03
CCc1nc(CC)n(CC(=O)N(C)CC(F)(F)F)n1,-2.869
COCCCN1CCN([C@@H]2c3ccccc3C3(CCNCC3)[C@H]2O)CC1,26.29
CC(C(=O)NCCN1CCOCC1)n1cncn1 (centres undefined),-7.785
Cc1ccccc1CN(C)CC(O)COCc1ccccc1Cl (centres undefined),-1.891
NCC(c1ccccc1)N1CCc2sccc2C1 (centres undefined),16.21
O=C(c1ccc[nH]1)N1CCCn2cnc(COCC3CC3)c2C1,16.85
O=C(O)C(F)(F)F.O=C(O)C(F)(F)F.[H][C@@]12CCCO[C@]1([H])[C@@H](Oc1ncccc1F)CN2Cc1ccoc1,-15.25
CC(CN1CCOCC1)NCC1CCN(c2cnn(C)c(=O)c2)CC1 (centres undefined),3.641
O=C(CCn1ccnn1)N1CCCC(n2cncn2)C1 (centres undefined),-9.215
CC1(C)CC(=O)c2cnc3nc(N4CCCC4)[nH]c(=O)c3c2C1,23.1
O=C(N1CCCC1)N1CCC[C@]2(C[C@@H](OCc3ccncc3)CO2)C1.O=C(O)C(F)(F)F,11.66
Cc1cc(CN2CCN(Cc3ccc(C#N)cc3F)CC2)no1,-3.509
c1ccc2sc(N3CCOC(Cn4cccn4)C3)nc2c1 (centres undefined),5.259
Cc1n[nH]c(C)c1-c1nccnc1CC1CCNC1 (centres undefined),48.45
COCCN1CCC2(CC1)CC1(CCN(S(C)(=O)=O)CC1)N(C)C2=O.O=C(O)C(F)(F)F,25.51
O=C(Nc1cccc2c1CCCC2)c1cccc(CN2CC[C@H](O)C2)c1,6.918
CN(C)Cc1n[nH]c2c1CCN(Cc1cccs1)C2.O=C(O)C(F)(F)F.O=C(O)C(F)(F)F,-10.19
CN1CCC(CNC(=O)NCc2ccc(F)cc2)CC1,5.075
CCN(Cc1noc(CC(C)C)n1)Cc1ccccc1C,20.27
CC(C)(C)n1cc(C2=CCN(CCNC(N)=O)CC2)cn1,5.496
COc1cc2c(cc1OC)S(=O)(=O)N(Cc1ccccc1)C2=O,18.77
Cc1cc(C(F)(F)F)n2nc(C3CCCN3C3CCSCC3)cc2n1.O=C(O)CC(O)(CC(=O)O)C(=O)O (centres undefined),-6.724

From ChEMBL document CHEMBL3988442, “University of Dundee, Small-Polar-MMV Screening Library” (2021).